Test results: the supplement of paper PMC12067093, “Discovery and optimisation of a covalent ligand for TRIM25 and its application to targeted protein ubiquitination” (Chemical Science, 2025)
The list shows a part of the results.

The chains behind the UniProt entries cited, without tags or fusion partners. Where a name states a change or a piece, a line headed by the entry shows the natural chain unless it says otherwise.
UniProt Q86Y39, whole entry, looked up: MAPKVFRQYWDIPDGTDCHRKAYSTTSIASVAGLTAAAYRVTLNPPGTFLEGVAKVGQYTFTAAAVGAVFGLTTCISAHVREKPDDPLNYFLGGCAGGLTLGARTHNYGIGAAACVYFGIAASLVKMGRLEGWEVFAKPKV
UniProt P08651, whole entry, looked up: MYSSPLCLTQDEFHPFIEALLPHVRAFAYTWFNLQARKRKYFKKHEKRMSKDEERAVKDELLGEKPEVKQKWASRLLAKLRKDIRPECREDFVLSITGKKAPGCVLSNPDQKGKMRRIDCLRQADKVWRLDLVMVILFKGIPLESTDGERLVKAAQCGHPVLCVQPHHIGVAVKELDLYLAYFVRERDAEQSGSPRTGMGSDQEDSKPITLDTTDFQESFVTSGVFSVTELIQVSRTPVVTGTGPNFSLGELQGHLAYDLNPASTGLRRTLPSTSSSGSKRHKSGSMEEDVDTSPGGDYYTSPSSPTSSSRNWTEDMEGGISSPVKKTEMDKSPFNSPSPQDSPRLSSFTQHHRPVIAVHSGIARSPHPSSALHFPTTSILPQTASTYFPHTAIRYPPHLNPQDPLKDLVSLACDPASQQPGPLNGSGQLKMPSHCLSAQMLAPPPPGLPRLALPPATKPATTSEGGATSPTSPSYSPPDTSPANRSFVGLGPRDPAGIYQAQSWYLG
UniProt Q9BYG3: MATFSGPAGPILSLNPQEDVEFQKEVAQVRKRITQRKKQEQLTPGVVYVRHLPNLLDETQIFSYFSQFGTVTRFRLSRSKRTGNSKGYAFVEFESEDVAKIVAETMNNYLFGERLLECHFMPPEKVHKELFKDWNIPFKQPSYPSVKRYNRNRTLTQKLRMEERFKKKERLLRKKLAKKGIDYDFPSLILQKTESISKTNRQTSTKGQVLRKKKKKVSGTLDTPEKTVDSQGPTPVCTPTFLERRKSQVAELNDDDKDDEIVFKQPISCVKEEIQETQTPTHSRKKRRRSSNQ
UniProt Q12986: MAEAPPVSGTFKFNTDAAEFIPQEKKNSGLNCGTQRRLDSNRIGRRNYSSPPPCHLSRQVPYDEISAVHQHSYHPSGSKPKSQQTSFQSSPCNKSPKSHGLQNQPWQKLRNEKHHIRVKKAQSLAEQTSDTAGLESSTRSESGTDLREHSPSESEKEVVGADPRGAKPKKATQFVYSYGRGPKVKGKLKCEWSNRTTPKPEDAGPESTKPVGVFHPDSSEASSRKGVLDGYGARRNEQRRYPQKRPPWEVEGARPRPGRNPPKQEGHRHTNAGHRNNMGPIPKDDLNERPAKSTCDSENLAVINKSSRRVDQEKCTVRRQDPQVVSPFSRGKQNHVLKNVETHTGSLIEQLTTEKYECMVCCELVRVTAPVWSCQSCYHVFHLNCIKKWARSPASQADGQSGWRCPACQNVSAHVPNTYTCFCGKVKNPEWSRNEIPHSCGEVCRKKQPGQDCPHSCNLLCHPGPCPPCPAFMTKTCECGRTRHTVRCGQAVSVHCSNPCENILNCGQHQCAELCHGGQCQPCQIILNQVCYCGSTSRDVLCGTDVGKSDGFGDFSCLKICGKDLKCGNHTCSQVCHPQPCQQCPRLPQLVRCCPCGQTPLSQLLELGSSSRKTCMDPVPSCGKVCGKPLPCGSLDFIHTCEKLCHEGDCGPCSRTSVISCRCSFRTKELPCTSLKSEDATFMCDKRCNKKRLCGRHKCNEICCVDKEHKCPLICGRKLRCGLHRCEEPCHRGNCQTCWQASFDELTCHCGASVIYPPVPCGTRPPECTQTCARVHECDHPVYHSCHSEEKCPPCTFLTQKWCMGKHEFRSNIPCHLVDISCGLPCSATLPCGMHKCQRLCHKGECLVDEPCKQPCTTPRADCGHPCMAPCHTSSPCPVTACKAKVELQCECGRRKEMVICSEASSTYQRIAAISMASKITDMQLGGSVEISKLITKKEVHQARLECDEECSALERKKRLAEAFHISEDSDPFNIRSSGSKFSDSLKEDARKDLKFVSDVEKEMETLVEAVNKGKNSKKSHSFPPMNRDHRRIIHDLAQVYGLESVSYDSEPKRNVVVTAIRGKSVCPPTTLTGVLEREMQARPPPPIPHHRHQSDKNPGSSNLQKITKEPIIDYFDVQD
UniProt Q6KC79: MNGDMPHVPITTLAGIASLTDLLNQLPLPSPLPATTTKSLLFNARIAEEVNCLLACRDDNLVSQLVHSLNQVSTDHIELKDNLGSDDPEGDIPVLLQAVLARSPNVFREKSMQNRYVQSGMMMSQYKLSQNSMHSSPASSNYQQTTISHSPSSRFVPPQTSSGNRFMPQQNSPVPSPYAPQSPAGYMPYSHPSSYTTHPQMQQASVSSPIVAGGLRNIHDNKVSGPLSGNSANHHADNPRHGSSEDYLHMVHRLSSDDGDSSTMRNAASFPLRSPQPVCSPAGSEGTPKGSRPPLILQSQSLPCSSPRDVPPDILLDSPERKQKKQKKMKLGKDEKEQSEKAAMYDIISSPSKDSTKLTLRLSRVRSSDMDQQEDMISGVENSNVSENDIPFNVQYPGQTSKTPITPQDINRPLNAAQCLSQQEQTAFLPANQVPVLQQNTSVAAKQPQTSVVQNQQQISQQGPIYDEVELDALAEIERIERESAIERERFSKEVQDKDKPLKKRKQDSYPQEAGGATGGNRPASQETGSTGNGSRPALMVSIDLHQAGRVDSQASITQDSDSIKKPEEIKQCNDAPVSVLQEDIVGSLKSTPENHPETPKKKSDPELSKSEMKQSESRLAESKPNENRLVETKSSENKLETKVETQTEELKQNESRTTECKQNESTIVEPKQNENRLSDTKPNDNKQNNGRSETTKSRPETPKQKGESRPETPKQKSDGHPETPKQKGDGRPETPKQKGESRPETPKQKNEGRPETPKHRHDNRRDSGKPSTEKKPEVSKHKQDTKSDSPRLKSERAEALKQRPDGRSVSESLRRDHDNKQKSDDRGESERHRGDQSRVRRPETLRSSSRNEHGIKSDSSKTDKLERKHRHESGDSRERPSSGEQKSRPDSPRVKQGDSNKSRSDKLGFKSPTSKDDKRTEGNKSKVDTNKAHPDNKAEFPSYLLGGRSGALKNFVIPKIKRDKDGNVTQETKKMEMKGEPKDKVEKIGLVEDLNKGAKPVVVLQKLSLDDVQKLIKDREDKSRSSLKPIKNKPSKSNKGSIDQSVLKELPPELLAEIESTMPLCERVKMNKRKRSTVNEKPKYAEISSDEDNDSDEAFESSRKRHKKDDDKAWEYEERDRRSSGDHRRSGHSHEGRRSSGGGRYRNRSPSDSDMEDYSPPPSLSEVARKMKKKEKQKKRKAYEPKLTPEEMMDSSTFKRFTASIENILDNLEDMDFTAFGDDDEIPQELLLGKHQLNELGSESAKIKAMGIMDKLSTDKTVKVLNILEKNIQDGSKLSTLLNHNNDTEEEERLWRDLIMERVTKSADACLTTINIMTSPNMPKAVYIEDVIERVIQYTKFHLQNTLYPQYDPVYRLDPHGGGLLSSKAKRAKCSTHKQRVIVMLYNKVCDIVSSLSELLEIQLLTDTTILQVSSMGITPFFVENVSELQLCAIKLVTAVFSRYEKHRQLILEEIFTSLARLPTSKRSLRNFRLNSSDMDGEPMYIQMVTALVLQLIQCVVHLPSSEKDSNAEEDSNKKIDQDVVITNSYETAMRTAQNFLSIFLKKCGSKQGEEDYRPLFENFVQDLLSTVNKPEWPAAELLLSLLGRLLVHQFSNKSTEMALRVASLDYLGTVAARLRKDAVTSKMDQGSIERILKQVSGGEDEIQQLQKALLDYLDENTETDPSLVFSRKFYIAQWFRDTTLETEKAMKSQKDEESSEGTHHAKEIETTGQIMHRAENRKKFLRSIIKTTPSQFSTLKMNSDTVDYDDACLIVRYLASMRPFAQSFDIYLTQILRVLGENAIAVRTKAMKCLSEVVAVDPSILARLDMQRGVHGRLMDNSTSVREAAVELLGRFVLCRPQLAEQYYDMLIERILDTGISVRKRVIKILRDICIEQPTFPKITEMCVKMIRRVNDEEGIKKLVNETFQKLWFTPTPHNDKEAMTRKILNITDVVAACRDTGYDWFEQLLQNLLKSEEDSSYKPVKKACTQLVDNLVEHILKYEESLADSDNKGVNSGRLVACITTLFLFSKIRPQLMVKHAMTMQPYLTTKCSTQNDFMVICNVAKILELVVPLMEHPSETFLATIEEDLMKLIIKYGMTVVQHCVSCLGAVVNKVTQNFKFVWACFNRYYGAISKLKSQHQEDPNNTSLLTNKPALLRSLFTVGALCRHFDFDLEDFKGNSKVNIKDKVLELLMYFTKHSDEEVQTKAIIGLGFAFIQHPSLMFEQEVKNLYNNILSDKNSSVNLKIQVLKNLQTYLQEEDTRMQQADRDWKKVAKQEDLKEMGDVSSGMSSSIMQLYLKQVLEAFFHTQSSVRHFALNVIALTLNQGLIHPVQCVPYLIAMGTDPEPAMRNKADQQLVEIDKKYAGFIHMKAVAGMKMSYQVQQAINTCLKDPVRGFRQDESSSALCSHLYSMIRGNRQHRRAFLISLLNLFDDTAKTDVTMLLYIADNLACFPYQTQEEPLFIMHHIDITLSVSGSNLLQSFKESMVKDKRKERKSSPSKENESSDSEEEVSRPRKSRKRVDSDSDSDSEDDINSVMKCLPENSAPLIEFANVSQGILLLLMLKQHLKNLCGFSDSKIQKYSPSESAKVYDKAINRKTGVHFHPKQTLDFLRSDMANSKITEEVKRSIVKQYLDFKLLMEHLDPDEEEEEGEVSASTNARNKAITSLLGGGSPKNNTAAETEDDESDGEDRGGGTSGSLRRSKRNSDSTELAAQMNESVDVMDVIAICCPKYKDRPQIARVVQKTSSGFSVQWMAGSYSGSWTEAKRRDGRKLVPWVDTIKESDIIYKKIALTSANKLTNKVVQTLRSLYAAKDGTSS
UniProt Q8IXH7, whole entry, looked up: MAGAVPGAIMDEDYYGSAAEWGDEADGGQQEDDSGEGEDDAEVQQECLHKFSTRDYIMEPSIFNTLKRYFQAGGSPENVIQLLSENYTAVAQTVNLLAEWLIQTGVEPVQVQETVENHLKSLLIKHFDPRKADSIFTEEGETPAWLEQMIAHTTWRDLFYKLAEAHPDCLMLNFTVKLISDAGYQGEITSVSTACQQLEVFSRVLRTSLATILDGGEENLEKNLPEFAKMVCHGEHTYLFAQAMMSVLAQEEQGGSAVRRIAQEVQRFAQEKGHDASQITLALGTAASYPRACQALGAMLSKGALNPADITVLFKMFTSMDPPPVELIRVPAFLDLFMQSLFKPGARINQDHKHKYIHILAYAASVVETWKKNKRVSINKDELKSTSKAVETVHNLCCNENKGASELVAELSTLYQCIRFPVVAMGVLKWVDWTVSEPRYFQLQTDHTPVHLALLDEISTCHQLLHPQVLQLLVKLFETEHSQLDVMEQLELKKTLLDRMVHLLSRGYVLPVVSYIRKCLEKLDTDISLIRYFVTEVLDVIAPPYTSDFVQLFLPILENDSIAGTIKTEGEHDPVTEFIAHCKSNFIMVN
UniProt Q86X76: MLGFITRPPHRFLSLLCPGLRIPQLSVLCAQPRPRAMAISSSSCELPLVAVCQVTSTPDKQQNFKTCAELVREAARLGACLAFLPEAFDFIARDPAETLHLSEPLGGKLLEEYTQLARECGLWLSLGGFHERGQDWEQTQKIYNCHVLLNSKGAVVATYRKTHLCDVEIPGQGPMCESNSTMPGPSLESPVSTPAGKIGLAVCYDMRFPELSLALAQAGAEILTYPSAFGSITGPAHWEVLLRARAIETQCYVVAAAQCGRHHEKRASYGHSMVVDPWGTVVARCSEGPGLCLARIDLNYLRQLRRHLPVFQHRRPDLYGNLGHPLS
UniProt Q96IV0: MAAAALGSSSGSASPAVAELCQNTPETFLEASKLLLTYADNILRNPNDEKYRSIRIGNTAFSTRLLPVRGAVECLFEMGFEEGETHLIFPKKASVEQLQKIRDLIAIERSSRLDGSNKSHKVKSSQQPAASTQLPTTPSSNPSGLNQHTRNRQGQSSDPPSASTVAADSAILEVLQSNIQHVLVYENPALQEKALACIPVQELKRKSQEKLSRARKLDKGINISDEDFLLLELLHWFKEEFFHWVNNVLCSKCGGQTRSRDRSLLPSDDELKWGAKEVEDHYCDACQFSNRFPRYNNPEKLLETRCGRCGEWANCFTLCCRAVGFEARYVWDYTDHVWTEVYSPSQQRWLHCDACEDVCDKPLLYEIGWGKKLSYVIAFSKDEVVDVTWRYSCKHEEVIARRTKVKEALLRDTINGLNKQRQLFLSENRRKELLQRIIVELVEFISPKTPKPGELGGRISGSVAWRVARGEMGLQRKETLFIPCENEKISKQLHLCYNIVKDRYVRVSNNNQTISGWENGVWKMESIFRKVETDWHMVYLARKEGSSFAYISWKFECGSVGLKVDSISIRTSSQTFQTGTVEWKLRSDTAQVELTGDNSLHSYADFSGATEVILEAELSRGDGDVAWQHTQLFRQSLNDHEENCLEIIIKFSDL
UniProt O43678, whole entry, looked up: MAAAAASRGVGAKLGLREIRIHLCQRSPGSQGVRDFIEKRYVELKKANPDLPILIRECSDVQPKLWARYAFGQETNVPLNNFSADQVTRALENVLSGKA

Compound: CC1Cc2ccccc2N1C(=O)C1CCCN(C1)C(=O)CCl (mixture of isomers) [TRIM25 ligand 11 (diastereomer mixture)]
Assay: probe-labelled cysteine peptide fold change vs DMSO (competition) (log2 fold change); higher = less target engagement (more negative = stronger competition)
Settings: THP-1, incubation time: 4 h
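Further: competitive chemoproteomic profiling in live THP-1 cells with an iodoacetamide desthiobiotin (IA-DTB) probe, comparing probe-labelled peptide intensities in compound-treated cells against DMSO-treated controls.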

| Target | probe-labelled cysteine peptide fold change (10 µM) | probe-labelled cysteine peptide fold change (50 µM) |
| --- | --- | --- |
| NFATC3_Q12968_537_VLEIPLLPENNMSASIDCAGILK (UniProt Q12968) | -0.0192 | -0.0905 |
| NDUFAB1_O14561_140_LMCPQEIVDYIADK (UniProt O14561) | -0.0757 | -0.184 |
| NDUFA11_Q86Y39_18_QYWDIPDGTDCHR (UniProt Q86Y39) | 0.1 | 0.372 |
| NFIC_P08651_88_DIRPECR (UniProt P08651) | 0.178 | 0.113 |
| NIFK_Q9BYG3_269_QPISCVK (UniProt Q9BYG3) | 0.199 | -0.0418 |
| NFX1_Q12986_377_VTAPVWSCQSCYHVFHLNCIK (UniProt Q12986) | 0.0626 | 0.0766 |
| NIPBL_Q6KC79_304_GSRPPLILQSQSLPCSSPR (UniProt Q6KC79) | 0.204 | 0.00224 |
| NCKIPSD_Q9NZQ3_138_QPNGVCR (UniProt Q9NZQ3) | -0.0933 | -0.32 |
| NFXL1_Q6ZNB6_371_TLPCGNHTCEQVCHVGACGECPR (UniProt Q6ZNB6) | -0.0361 | 0.161 |
| NIPBL_Q6KC79_1940_ILNITDVVAACR (UniProt Q6KC79) | -0.0954 | -0.166 |
| NFAT5_O94916_270_KSPMLCGQYPVK (UniProt O94916) | -0.151 | -0.216 |
| NIFK_Q9BYG3_237_TVDSQGPTPVCTPTFLER (UniProt Q9BYG3) | 0.0598 | -0.143 |
| NFX1_Q12986_572_CGNHTCSQVCHPQPCQQCPR (UniProt Q12986) | -0.0882 | 0.169 |
| NECAP2_Q9NVZ3_11_MEESGYESVLCVKPDVHVYR (UniProt Q9NVZ3) | -0.174 | -0.048 |
| NEK9_Q8TD19_556_VLACGLNEFNK (UniProt Q8TD19) | 0.127 | 0.169 |
| NELFCD_Q8IXH7_417_GASELVAELSTLYQCIR (UniProt Q8IXH7) | -0.0179 | -0.0508 |
| NIPBL_Q6KC79_1066_ELPPELLAEIESTMPLCER (UniProt Q6KC79) | 0.327 | 0.319 |

Part of the list above, as comma-separated lines.
Target,probe-labelled cysteine peptide fold change (10 µM),probe-labelled cysteine peptide fold change (50 µM)
NDUFAB1_O14561_140_LMCPQEIVDYIADK (UniProt O14561),-0.0757,-0.184
NDUFA11_Q86Y39_18_QYWDIPDGTDCHR (UniProt Q86Y39),0.1,0.372
NFIC_P08651_88_DIRPECR (UniProt P08651),0.178,0.113
NIFK_Q9BYG3_269_QPISCVK (UniProt Q9BYG3),0.199,-0.0418
NFX1_Q12986_377_VTAPVWSCQSCYHVFHLNCIK (UniProt Q12986),0.0626,0.0766
NIPBL_Q6KC79_304_GSRPPLILQSQSLPCSSPR (UniProt Q6KC79),0.204,0.00224

Remaining list, next part

| Target | probe-labelled cysteine peptide fold change (10 µM) | probe-labelled cysteine peptide fold change (50 µM) |
| --- | --- | --- |
| NISCH_Q9Y2I1_403_SIGSLPCLEHVSLLNNPLSIIPDYR (UniProt Q9Y2I1) | 0.0605 | -0.128 |
| NCEH1_Q6PIU2_345_TYILTCEHDVLR (UniProt Q6PIU2) | 0.154 | 0.0919 |
| NIT1_Q86X76-2_16_AISSSSCELPLVAVCQVTSTPDK (UniProt Q86X76) | -0.208 | -0.189 |
| NFATC1_O95644_587_TLSLQVASNPIECSQR (UniProt O95644) | 0.128 | 0.223 |
| NFX1_Q12986_444_NEIPHSCGEVCR (UniProt Q12986) | 0.00232 | 0.118 |
| NEK9_Q8TD19_487_VAGPEVLEPMQLNFFLSNPVEQVSCGDNHVVVLTR (UniProt Q8TD19) | 0.0267 | 0.0157 |
| NIT1_Q86X76_67_TCAELVR (UniProt Q86X76) | -0.0774 | 0.172 |
| NGLY1_Q96IV0_74_GAVECLFEMGFEEGETHLIFPK (UniProt Q96IV0) | -0.101 | 0.0423 |
| NCKIPSD_Q9NZQ3_412_CYLEELLHILTDADPEVCKK (UniProt Q9NZQ3) | -0.188 | 0.0178 |
| NDUFA8_P51970_36_AAAHHYGAQCDK (UniProt P51970) | 0.0907 | 0.233 |
| NELFCD_Q8IXH7_293_ACQALGAMLSK (UniProt Q8IXH7) | -0.011 | -0.0645 |
| NEK9_Q8TD19_375_QVCAGNTHFAVVTVEK (UniProt Q8TD19) | -0.0198 | -0.0595 |
| NEDD4_P46934_1197_IFDENELELLMCGLGDVDVNDWREHTK (UniProt P46934) | -0.196 | -0.108 |
| NDUFV1_P49821_125_YLVVNADEGEPGTCK (UniProt P49821) | 0.121 | 0.00708 |
| NCL_P19338_543_EALNSCNKR (UniProt P19338) | -0.0452 | -0.103 |
| NDUFA2_O43678_24_IHLCQR (UniProt O43678) | -0.147 | -0.162 |
| NGLY1_Q96IV0_283+286_EVEDHYCDACQFSNR (UniProt Q96IV0) | 0.263 | -0.144 |
